Some entries share one result that the patent states for a list of compounds.
Tested on: TNFα
Experiment: LPS induced TNFα in human whole blood (HWB)
Assay type: cell-based
Conditions: LPS 1 μg/ml, 24 h
Procedure: Freshly collected HWB was diluted with media and incubated with the desired concentration of inhibitor for 15 min. LPS (1 μg/ml) was added and then incubated for 24 hours. The supernatant was collected and TNFα estimated using an eBioscience TNFα ELISA kit.
Freshly collected HWB was diluted with media and incubated with the desired concentration of inhibitor for 15 minutes. LPS (1 μg/ml) was added and then incubated for 24 hours. The supernatant was collected and TNFα estimated using an eBioscience TNFα ELISA kit.

| Compound | decrease of TNFα secretion (2.5 nM alone) | decrease of TNFα secretion (1000 nM alone) |
| --- | --- | --- |
| O=C(Nc1c(Cl)cncc1Cl)c1ccc(OC(F)F)c(OCC2CC2)c1 [Compound A, roflumilast, reference compound] | < 10% |  |
| C[C@H](Nc1ncnc2[nH]cnc12)c1oc2ccc(F)cc2c(=O)c1-c1cccc(F)c1 [Compound C, (S)-2-(1-(9H-purin-6-ylamino)ethyl)-6-fluoro-3-(3-fluorophenyl)-4H-chromen-4-one] |  | < 10% |

From patent US10413532B2, “Pharmaceutical compositions containing a PDE4 inhibitor and a PI3 delta or dual PI3 delta-gamma kinase inhibitor” (Rhizen Pharmaceuticals SA, priority 2012, dated 2019)
